Laboratory results from PubChem BioAssay AID504467 (National Center for Advancing Translational Sciences (NCATS), 2011).
Hit rate of the full screen: of about 330,000 compounds, about 7,700 (2.3%) were called active. Inconclusive results, whose numbers are uncertain, are shown with a selection of clear calls. Calls follow the shape of the dose curve; as a rule, active = well fitted inhibition curve with a large enough effect; inconclusive = small, poorly fitted or top-dose-only effect, or effect the other way; inactive = flat fitted curve, though single readings scatter. Potencies beside an inconclusive call are fits to weak or partial responses and may not hold up.

assay: qHTS screen for small molecules that inhibit ELG1-dependent DNA repair in human embryonic kidney (HEK293T) cells expressing luciferase-tagged ELG1; details: HEK293T ELG1-luciferase reporter, luminescence, 16 h, DNA damage induced by 5-fluorouridine; activity change, negative = inhibition: at 46.1 µM (top of the series); also: nearly all actives have a fitted effect of over 55% in size
Procedure, shortened: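 Cells (2,000 per well) received 5-fluorouridine plus test compound or DMSO and were incubated 16 hr at 37 °C, 5% CO2. Luciferase activity was read by luminescence 30 min after ONE-Glo addition; signal suppression marked inhibition of damage-induced ELG1 function.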
% is scaled to controls: 0 for no effect and ±100 for the full control effect; potency is read from the fitted curve at half-maximal effect.

Compound | activity change, negative = inhibition | Potency
O=C(COc1ccc(Cl)cc1)Nc1cccc(S(=O)(=O)NCc2ccco2)c1 | inactive: -13.8% | 
COc1ccc(C(=O)/C(C#N)=N/Nc2ccccc2[N+](=O)[O-])cc1 |  | inconclusive: 2.31 µM [inhibitor, partial curve, poor fit]
COc1cccc(-n2ccnc2SCC(=O)Nc2ccccc2F)c1 |  | inconclusive: 6.51 µM [inhibitor, partial curve, poor fit]
Cc1c(NC(=O)c2cnn3c2NC(c2ccco2)CC3C(F)(F)F)c(=O)n(-c2ccccc2)n1C (stereo unspecified) | inactive: -3.53% | 
O=C(C1CCCN(S(=O)(=O)Cc2ccccc2)C1)N1CCc2ccccc21 (stereo unspecified) |  | active: 25.9 µM
COc1ccc(-c2cn3c4c(sc3n2)CCCC4)cc1 |  | inconclusive: 0.517 µM [activator, full curve]
CCN(CC(=O)NCc1ccc(Cl)cc1)C(=O)COc1ccc(C)cc1C |  | inconclusive: 25.9 µM [inhibitor, single point]
Nc1nc2ccc(OC(F)(F)F)cc2s1 |  | inconclusive: 9.2 µM [activator, partial curve]
O=C(CSc1ncccn1)Nc1cccc(S(=O)(=O)N2CCOCC2)c1 | inactive: 0.339% | 
O=C1CCCC2=C1C(c1ccccn1)Nc1ccc(C(=O)c3ccccc3)cc1N2 (stereo unspecified) |  | inconclusive: 20.6 µM [inhibitor, partial curve, poor fit]
Cc1cc(OCC(=O)c2ccc(F)cc2)ccc1N1C(=O)CCC1=O |  | inconclusive: 0.0082 µM [inhibitor, full curve, poor fit]
Cc1cc2ccccc2n2c(SCC(=O)Nc3ccc(S(=O)(=O)N4CCC(C)CC4)cc3)nnc12 |  | active: 25.9 µM
CC(=O)Nc1sc(C)c(C)c1C(=O)OCC(=O)N(CC(C)C)c1c(N)n(Cc2ccccc2)c(=O)[nH]c1=O |  | inconclusive: 6.51 µM [inhibitor, single point]
CCn1c(CNc2ccc(F)cc2)nnc1SCC#N | inactive: -5.88% | 
COc1ccc2oc(C(=O)Nc3ccccc3N3CCOCC3)c(C)c2c1 | inactive: 19.6% | 
Cc1ccc(C(=O)Nc2ncn[nH]2)cc1 | inactive: 9.71% | 
Cc1cc(OCC(=O)Nc2ccc(CCO)cc2)c2c(C)c(C)c(=O)oc2c1 |  | inconclusive: 4.11 µM [activator, partial curve]
CC(=O)Nc1ccc(S(=O)(=O)N2CCN(C(=O)c3cccnc3)CC2)cc1 |  | inconclusive: 25.9 µM [activator, partial curve, poor fit]
CN(C)/C=N/c1ncc(C(=O)c2ccc(-c3ccccc3)cc2)s1 |  | inconclusive: 29.1 µM [inhibitor, single point]
COc1ccc(OC)c(-c2cc(C3CCN(C(=O)OC(C)(C)C)CC3)[nH]n2)c1 |  | inconclusive: 29.1 µM [inhibitor, single point]
COc1cc(CCCN2CCNC[C@@H]2CC2CCCCC2)cc(OC)c1OC | inactive: 10.8% | 
COc1ccc(N(C)S(=O)(=O)c2cccc(C(=O)NCC3CCCO3)c2)cc1 (stereo unspecified) |  | inconclusive: 29.1 µM [inhibitor, single point]

Compound | activity change, negative = inhibition | Potency
CSc1ccccc1NC(=O)C1=CC(c2ccc(C)cc2)=NS(=O)(=O)N1C |  | inconclusive: 29.1 µM [inhibitor, single point]
COc1ccc(C(=O)NCC(C)(C)SCc2c(C)cc(C)cc2C)cc1 |  | inconclusive: 29.1 µM [inhibitor, single point]
COc1cccc(C(=O)/C=C/Nc2cc(C)ccc2O)c1 |  | inconclusive: 3.66 µM [activator, partial curve, poor fit]
Cn1cc(C(=O)N/N=C/C(Br)=C\c2ccccc2)ccc1=O | inactive: -0.203% | 
CCCC(=O)NC(Nc1c(C)n(C)n(-c2ccccc2)c1=O)C(Cl)(Cl)Cl (stereo unspecified) | inactive: -2.08% | 
CCC(=O)N1CCN(c2nc(-c3ccc(Cl)cc3)cs2)CC1 | inactive: 1.88% | 
O=C(Nc1ccc(S(=O)(=O)N2CCCC2)cc1)c1cccc(OC(F)F)c1 |  | inconclusive: 23.1 µM [inhibitor, single point]
Cc1[nH]nc(Nc2ccc(O)cc2)c1[N+](=O)[O-] |  | inconclusive: 20.6 µM [activator, single point]
O=C(COc1ccccc1Cl)NCCNC(=O)c1ccco1 |  | inconclusive: 20.6 µM [activator, partial curve, poor fit]
COc1ccccc1Nc1nnc(SCC2CCCCO2)s1 (stereo unspecified) |  | inconclusive: 0.73 µM [activator, full curve]
COCCN(CC(=O)Nc1cccc(C)c1C)C(=O)c1cc(-c2cccs2)nn1-c1ccccc1 |  | active: 12.6 µM
Cc1cc(OCC(=O)N2CCOCC2)ccc1[N+](=O)[O-] |  | inconclusive: 20.6 µM [activator, partial curve]
CCn1cc(C(=O)Nc2ccccc2C(=O)OC)c(=O)c2ccc(C)nc21 |  | inconclusive: 1.3 µM [activator, partial curve]
Cc1cc(NC(=O)/C=C/c2cccc(F)c2)n(-c2nc3ccccc3[nH]2)n1 |  | inconclusive: 32.6 µM [inhibitor, partial curve, poor fit]
Cc1csc(NC(=O)Cc2ccccc2Cl)n1 |  | inconclusive: 29.1 µM [activator, partial curve]
CC1(C)CCCN(C(=O)c2coc(=O)c(Br)c2)C1 |  | inconclusive: 25.9 µM [activator, partial curve, poor fit]
CC(CC(=O)NNC(=O)c1cccc(Cl)c1)c1ccccc1 (stereo unspecified) | inactive: 14.2% | 
O=C(COC(=O)c1ccccc1SCC(=O)N1CCCC1)Nc1ccc(OC(F)F)cc1 |  | inconclusive: 29.1 µM [inhibitor, single point]
CC(OC(=O)c1n[nH]c2ccccc12)C(=O)Nc1ccccc1[N+](=O)[O-] (stereo unspecified) |  | inconclusive: 29.1 µM [activator, single point]
O=C(OCC(=O)c1ccco1)c1ccc2ncsc2c1 |  | inconclusive: 29.1 µM [activator, partial curve, poor fit]
O=C(/C=C\c1ccccc1)Oc1cccc2cccnc12 |  | inconclusive: 29.1 µM [inhibitor, single point]
c1ccc(CCN2CN=C(Nc3nc4ccccc4o3)NC2)cc1 |  | inconclusive: 20.6 µM [activator, partial curve]

Exported as tab-separated lines: entries from further up.
Compound	activity change, negative = inhibition	Potency
O=C(COc1ccc(Cl)cc1)Nc1cccc(S(=O)(=O)NCc2ccco2)c1	inactive: -13.8%	
CCN(CC(=O)NCc1ccc(Cl)cc1)C(=O)COc1ccc(C)cc1C		inconclusive: 25.9 µM [inhibitor, single point]

Looked up by compound from the entries so far (two):
Compound | activity change, negative = inhibition | Potency
O=C(COC(=O)c1ccccc1SCC(=O)N1CCCC1)Nc1ccc(OC(F)F)cc1 |  | inconclusive: 29.1 µM [inhibitor, single point]
O=C(OCC(=O)c1ccco1)c1ccc2ncsc2c1 |  | inconclusive: 29.1 µM [activator, partial curve, poor fit]

(continued)

Compound | activity change, negative = inhibition | Potency
O=C(COC(=O)c1ccc(Cl)c(S(=O)(=O)NCc2ccccc2)c1)NC1CC1 |  | inconclusive: 2.31 µM [activator, single point]
CCOC(=O)c1ccc(NC(=O)CSc2nnc(CNc3ccc(C)cc3)n2C)cc1 |  | inconclusive: 29.1 µM [inhibitor, single point]
COc1cc(/C=C/C(=O)OCC(=O)Nc2ccc(NC(C)=O)cc2)cc(S(=O)(=O)N2CCc3ccccc32)c1OC |  | active: 20.6 µM
COc1cc(/C=N/NC(=O)c2ccncc2)ccc1Oc1ccc([N+](=O)[O-])cn1 |  | inconclusive: 25.9 µM [inhibitor, partial curve, poor fit]
CCN(CC)C(=O)c1ccc(-c2ccccc2)cc1 |  | inconclusive: 23.1 µM [activator, single point]
COc1ccc(S(=O)(=O)N(C)CC(=O)Nc2ccc(C(N)=O)cc2)cc1OC |  | inconclusive: 18.3 µM [activator, single point]
Cc1ccc(-c2cccc(C(=O)NCc3ccccc3)n2)c2ccccc12 | inactive: -1.76% | 
COc1cc(/C=N/NC(=O)c2cc(-c3cccs3)nc3ccccc23)ccc1O |  | inconclusive: 29.1 µM [inhibitor, single point]
CCC(C(=O)OCC(=O)Nc1cccc(C(C)=O)c1)c1ccccc1 (stereo unspecified) |  | inconclusive: 2.59 µM [inhibitor, full curve]
CCOc1ccc(CC(=O)C2C(=O)CC(C)(C)CC2=O)cc1OCC | inactive: 1.34% | 
Cc1cccc(N2CCN(C(=O)c3ccc(CS(=O)Cc4ccc(Cl)cc4)o3)CC2)c1C (stereo unspecified) |  | inconclusive: 25.9 µM [inhibitor, partial curve]
CC(=O)N(C)c1ccc(OCC(O)Cn2c3ccc(Cl)cc3c3cc(Cl)ccc32)cc1 (stereo unspecified) |  | active: 18.4 µM
O=C(Nc1ccccn1)C(=O)N1CCCCC1 |  | inconclusive: 18.4 µM [activator, partial curve, poor fit]
Cc1cc(C)cc(SCc2noc(C(=O)NCCCN3CCOCC3)c2C(=O)NCCCN2CCOCC2)c1 |  | inconclusive: 13 µM [activator, single point]
N=c1c(S(=O)(=O)c2ccccc2)cc2c(=O)n3ccccc3nc2n1Cc1ccco1 |  | inconclusive: 29.1 µM [inhibitor, single point]
CCN(CC)CCNC(=O)c1ccc(NC(=O)c2ccc3c(c2)CCC3)cc1 |  | inconclusive: 13 µM [activator, partial curve, poor fit]
C/C(=N\NC(=O)c1cccc(F)c1)c1ccc(NC(=O)Cc2ccccc2)cc1 |  | inconclusive: 18.3 µM [activator, single point]
COc1ccc(C(=O)COc2ccccc2C#N)cc1 |  | inconclusive: 23.1 µM [activator, partial curve]
COc1cccc(C2c3[nH]c4ccccc4c3CCN2Cc2cnc(C)s2)c1OC (stereo unspecified) |  | inconclusive: 23.1 µM [inhibitor, single point]
Cc1nc2ccc(NC(=O)c3cccc(S(=O)(=O)N(C)c4ccccc4)c3)cc2s1 |  | active: 18.4 µM
O=C1CCCC(=O)N1c1ccc(N2CCOCC2)c([N+](=O)[O-])c1 | inactive: 3.15% | 
O=C1OCCN1C(=O)[C@H]1[C@H](c2ccc(F)cc2)C(c2ccc(F)cc2)=NN1c1ccccc1 |  | inconclusive: 18.4 µM [inhibitor, partial curve, poor fit]
